# Some of the results follow. Shown are side measurements of this screen, not its main read-out; they come without a call. Most of these compounds were active or inconclusive in the main read-out, so they are no random draw. The note in brackets gives the kind of curve behind each potency; many fits are weak.
# Assay: Cell signaling CRE-BLA (Fsk stim)
# Details: CHO CRE-bla reporter (cAMP response element driving beta-lactamase), forskolin EC10, beta-lactamase ratio; measured here: 460 nm blue channel
# Outline: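 Titrated compounds plus EC10 NKH 477 on CHO CRE-bla cells, 3 h, 37 °C. CCF4, 2 h RT. Ratio 460/530 nm → AC50.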
row,SMILES,AC50
1,Cc1cc(C(=O)NCCC2=CCCCC2)c(C)o1,"12.6 µM [falling, single point]"
2,N#CCSCC(=O)Nc1ccc(F)cc1,"0.00398 µM [falling, full curve, poor fit]"
3,Cc1noc(C)c1CSc1nc2ccccc2nc1NS(=O)(=O)c1ccc(Cl)cc1,"20 µM [rising, single point]"
4,CCCCNc1nc(SC)nc2nc[nH]c12,"3.16 µM [rising, single point]"
5,CCOC(=O)Cc1csc(SCn2nnc3ccccc3c2=O)n1,"0.0158 µM [falling, partial curve, poor fit]"
6,O=C(c1cccs1)n1nc(-c2ccccc2)nc1NCc1ccco1,"25.1 µM [rising, single point]"
7,COc1ccc(NC(=O)N2CCCC3(CCN(C(=O)c4cc(C(F)(F)F)cc(C(F)(F)F)c4)CC3)C2)cc1,"25.1 µM [rising, single point]"
8,CCOC(=O)c1cnc(SCC(=O)Nc2ccc(NC(C)=O)c(OC)c2)nc1N,"12.6 µM [rising, single point]"
9,COCc1cc(C)[nH]c(=O)c1C#N,"0.631 µM [falling, partial curve]"
10,COC(=O)CSc1nc(C2CC2)nc2ccccc12,"12.6 µM [rising, single point]"
11,COc1ccc2cc(C(c3nnnn3Cc3ccc(F)cc3)N3CCCCCC3)c(=O)[nH]c2c1 (centres undefined),"12.6 µM [rising, single point]"
12,CCCc1[nH]nc2c1C(C1CC=CCC1)C(C#N)=C(N)O2 (centres undefined),"20 µM [falling, single point]"
13,CCOC(=O)CSc1nc2cccnc2n1-c1ccc(F)cc1,"12.6 µM [rising, partial curve]"
14,O=S(=O)(O)CCN1CCOCC1,"0.158 µM [falling, partial curve, poor fit]"
15,O=C(c1nn2c(C(F)(F)F)cc(-c3ccccc3)nc2c1Cl)N1CCOCC1,"12.6 µM [rising, single point]"
16,O=C(c1ccncc1)N1CCN(C(=O)c2cccs2)CC1,"0.00398 µM [falling, full curve]"
17,O=C(Nc1ccc(F)cc1)N(Cc1ccco1)Cc1cc2cc3c(cc2[nH]c1=O)OCO3,"7.94 µM [rising, partial curve]"
18,CC(C)C(=O)N1CCc2cc(-c3csc(N)n3)ccc21,"7.94 µM [rising, partial curve]"
19,O=C(O)c1cc2nc3c(c(C(F)(F)F)n2n1)CCc1ccccc1-3,"1.26 µM [rising, partial curve]"
20,N#Cc1cccc(NC(=O)N2CCCC3(CCN(C(=O)c4ccco4)CC3)C2)c1,"12.6 µM [falling, single point]"
21,COC(=O)c1ccc2c(c1)C(=O)N(C1CCCCC1)C2=O,"0.00794 µM [falling, full curve, poor fit]"
22,CN(C)C(=O)c1ccc(-c2ccc3ncnc(NCc4cccnc4)c3c2)cc1,"10 µM [rising, partial curve]"
23,COc1ccccc1NC(=O)CSCC(N)=O,"25.1 µM [rising, single point]"

# Shown with tabs: 2 of the compounds above
row	SMILES	AC50
5	CCOC(=O)Cc1csc(SCn2nnc3ccccc3c2=O)n1	0.0158 µM [falling, partial curve, poor fit]
21	COC(=O)c1ccc2c(c1)C(=O)N(C1CCCCC1)C2=O	0.00794 µM [falling, full curve, poor fit]

# Next compounds follow.

row,SMILES,AC50
1,COCc1cc(C)nc(N2CCc3ccccc32)c1C#N,"7.94 µM [rising, partial curve]"
2,c1cc2c(cc1Oc1nc(N3CCOCC3)nc(N3CCOCC3)n1)OCO2,"12.6 µM [falling, partial curve]"
3,CCNc1ncc2nc(-c3ccc(Cl)cc3)c(=O)n(Cc3ccc(F)cc3)c2n1,"5.01 µM [rising, partial curve]"
4,Cn1c(C(=O)N2CCN(c3ccccn3)CC2)cc2c(=O)n(C)c3ccccc3c21,"12.6 µM [rising, partial curve]"
5,Cc1c(/C=N/n2cnnc2)c2ccccc2n1CCOc1ccc(Cl)cc1,"3.98 µM [rising, partial curve]"
6,COc1ccc(CCNC(=O)c2cnn3cccnc23)cc1OC,"12.6 µM [rising, single point]"
7,CC1CCC2C(C1)c1sc(=O)[nH]c1SC2(C)C (centres undefined),"10 µM [rising, partial curve]"
8,Cc1ccc(NC(=O)CN2CCC3(O)CCCCC3C2c2ccc3c(c2)OCO3)c(C)c1 (centres undefined),"10 µM [rising, partial curve]"
9,CN1CCN(c2ncc3nc(-c4cc(F)cc(F)c4)c(=O)n(CCc4ccccc4)c3n2)CC1,"1 µM [rising, full curve]"
10,CCN(CC(=O)Nc1ccc2c(c1)OCCO2)Cc1cc(=O)oc2cc(C)c(C)cc12,"12.6 µM [rising, partial curve]"
11,Cc1cc2n(n1)C(c1sccc1C)Nc1ccccc1-2 (centres undefined),"10 µM [rising, partial curve]"
12,CCCC(=O)c1ccc(N2CCN(S(=O)(=O)c3ccc(C)cc3)CC2)c(F)c1,"3.98 µM [falling, single point]"
13,CCOc1ccccc1Oc1cn[nH]c1-c1ccc(OC)cc1O,"25.1 µM [falling, single point]"
14,Cc1ccc(C2C3=C(CC(C)(C)CC3=O)Nc3n[nH]c(C)c32)cc1 (centres undefined),"3.16 µM [rising, single point]"
15,CC(C)(C)C(=O)/C=c1\[nH]c(=O)/c(=C\c2ccc(C#N)cc2)s1,"15.8 µM [rising, partial curve]"
16,CCCN1CC=C2C(C#N)=C(N)C(C#N)(C#N)C(c3cc(OC)ccc3OC)C2C1 (centres undefined),"10 µM [rising, partial curve]"
17,CC1(C)CC(=O)C2=C(C1)OC1=C(C(=O)CC(C)(C)C1)C2c1ccc(O)cc1O,"0.0126 µM [falling, partial curve, poor fit]"
18,CN(C)c1nc(-c2cccc(C#N)c2)nc2ccccc12,"10 µM [rising, partial curve]"
19,O=C(NCCc1c[nH]c2ccccc12)c1c(Cl)nc2sccn12,"7.94 µM [rising, partial curve]"
20,CN(C)c1oc(-c2ccccc2Cl)nc1C#N,"25.1 µM [rising, single point]"
21,CCC12CC3CC(C1)CC(C(=O)O)(C3)C2,"0.316 µM [rising, partial curve]"
22,CCCCN(c1ccccc1)S(=O)(=O)c1ccc2c(c1)CCN2C(=O)CCC(=O)O,"0.316 µM [falling, full curve, poor fit]"
23,COc1cccc(Nc2ncc3nc(C)c(=O)n(CCc4ccccc4)c3n2)c1,"6.31 µM [rising, partial curve]"

# Grouped by structure, the entries above containing a carbonyl joined to an NH by a bond outside any ring.
row,SMILES,AC50
1,Cc1cc(C(=O)NCCC2=CCCCC2)c(C)o1,"12.6 µM [falling, single point]"
2,N#CCSCC(=O)Nc1ccc(F)cc1,"0.00398 µM [falling, full curve, poor fit]"
7,COc1ccc(NC(=O)N2CCCC3(CCN(C(=O)c4cc(C(F)(F)F)cc(C(F)(F)F)c4)CC3)C2)cc1,"25.1 µM [rising, single point]"
8,CCOC(=O)c1cnc(SCC(=O)Nc2ccc(NC(C)=O)c(OC)c2)nc1N,"12.6 µM [rising, single point]"
17,O=C(Nc1ccc(F)cc1)N(Cc1ccco1)Cc1cc2cc3c(cc2[nH]c1=O)OCO3,"7.94 µM [rising, partial curve]"
20,N#Cc1cccc(NC(=O)N2CCCC3(CCN(C(=O)c4ccco4)CC3)C2)c1,"12.6 µM [falling, single point]"
23,COc1ccccc1NC(=O)CSCC(N)=O,"25.1 µM [rising, single point]"
6,COc1ccc(CCNC(=O)c2cnn3cccnc23)cc1OC,"12.6 µM [rising, single point]"
8,Cc1ccc(NC(=O)CN2CCC3(O)CCCCC3C2c2ccc3c(c2)OCO3)c(C)c1 (centres undefined),"10 µM [rising, partial curve]"
10,CCN(CC(=O)Nc1ccc2c(c1)OCCO2)Cc1cc(=O)oc2cc(C)c(C)cc12,"12.6 µM [rising, partial curve]"
19,O=C(NCCc1c[nH]c2ccccc12)c1c(Cl)nc2sccn12,"7.94 µM [rising, partial curve]"

# Later entries

row,SMILES,AC50
1,O=C(COC(=O)C1CC1)Nc1ccc(Oc2ccccc2)cc1,"3.98 µM [falling, single point]"
2,Cc1n[nH]c(C)c1S(=O)(=O)N1CCCCCC1,"0.126 µM [falling, full curve]"
3,Cn1cc(CC(=O)N2CCN(c3ccc(Cl)cc3)CC2)c2ccccc21,"0.631 µM [falling, full curve]"
4,Cn1c(=O)cnc2cnc(Nc3ccccc3)nc21,"20 µM [rising, single point]"
5,O=C(COC(=O)c1cccs1)NCc1ccco1,"12.6 µM [falling, partial curve]"
6,CCOC(=O)c1cn(CC(=O)Nc2ccc(C(C)C)cc2)nn1,"25.1 µM [rising, single point]"
7,CCNc1ncc2nc(-c3cn(C)c4ccccc34)c(=O)n(Cc3ccc(F)cc3)c2n1,"12.6 µM [rising, partial curve]"
8,CCC(=O)Nc1ccc(C(=O)Nc2ccc3c(c2)C(=O)N(CC2CCCO2)C3=O)cc1 (centres undefined),"25.1 µM [rising, single point]"
9,Cc1ccc2nc(NCCCNC(=O)c3cnccn3)c(C#N)cc2c1,"12.6 µM [rising, partial curve]"
10,COc1ccc(-c2nnc(-c3cccs3)o2)cc1OC,"12.6 µM [rising, partial curve]"
11,COc1ccc(-c2cc(C(F)(F)F)nc(SCC(=O)N3CCOCC3)n2)cc1OC,"0.794 µM [rising, full curve]"
12,CCCc1c(C)c2cc(C)ccc2[nH]c1=O,"0.00398 µM [falling, full curve, poor fit]"
13,CCOC(=O)C1CCN(C(=O)c2sc3nc(-c4ccccc4)cn3c2C)CC1,"12.6 µM [rising, partial curve]"
14,C/C=C/CSc1nc2c(c(=O)[nH]c(=O)n2C)n1CCC,"5.01 µM [rising, partial curve]"
15,COc1ncc2nc(C)c(=O)n(Cc3cccs3)c2n1,"12.6 µM [rising, partial curve]"
16,O=C(NCCCN1CCN(CCCNC(=O)c2ccccc2F)CC1)c1ccccc1F,"0.251 µM [rising, full curve]"
17,CCOC(=O)c1[nH]c2ccc(OCC)cc2c1NC(=O)CN1CCN(c2ccccn2)CC1,"12.6 µM [rising, single point]"
18,CCOC(=O)N1CCN(C(=O)CCn2nc(-c3ccc(Cl)cc3)ccc2=O)CC1,"0.0251 µM [falling, partial curve]"
19,CCSc1nnc(NC(=O)CSc2nc3c(c(=O)n2-c2ccccc2)SCC3)s1,"3.16 µM [rising, partial curve]"
20,COC(=O)C1(S(=O)(=O)c2cccc3nsnc23)CC1,"0.1 µM [falling, single point]"
21,COCCCn1c2nc3ccccc3nc2c2c(=O)n(Cc3ccc(Cl)cc3)cnc21,"0.1 µM [falling, partial curve]"
22,COCC(=O)NCCc1nc(-c2ccccc2)cs1,"5.01 µM [falling, partial curve, poor fit]"
23,CCC(C)[C@H](NC(=O)NCc1ccccc1)C(=O)O (some centres undefined),"0.631 µM [falling, full curve]"

# Source: PubChem BioAssay AID662 (National Center for Advancing Translational Sciences (NCATS), 2007)
